A short description of the series: Blood pressure and heart rate (automated aneroid devices) in the crossover study. It is filed as in vivo, human.
Setting [1] is: during vitamin D supplementation, patients on atorvastatin.

From US20090163452A1, “COMPOSITIONS AND METHODS FOR LOWERING SERUM CHOLESTEROL” (priority 2007, published 2009) come the findings set out here.

The amount applied is not stated for every result.

In turn, `CC(C)c1c(C(=O)Nc2ccccc2)c(-c2ccccc2)c(-c2ccc(F)cc2)n1CC[C@@H](O)C[C@@H](O)CC(=O)O` [atorvastatin] had a heart rate (Off-D, atorvastatin without supplemental vitamin D) of 81±14 bpm.

vitamin D: under setting [1], the diastolic blood pressure is given as 69±8 mmHg, the heart rate is 65±15 bpm, the mean arterial pressure is on record as 88±8 mmHg and the systolic blood pressure stood at 125±12 mmHg.
